Experiment in all cases: log2 fold change, soluble protein after heating vs DMSO (PISA); higher = thermal stabilisation; K562 lysate, 10 uM; active = over 0.2 and 3.5 SD of the protein, either way, in both replicates (recomputed)
Compound in test [1]: CC1=C2C(=CC=C1)N=C(N(C2=O)C3=CC=CC=C3C)CN4C=NC5=C(N=CN=C54)N
The gist of the method:
(§1)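 The values are log-two fold changes in thermal stability compared with solvent controls and come from duplicates. They were obtained by TMTpro 16plex LC-MS/MS, with channel sums equalised, on the supernatant after 21,000xg for 90 min. That supernatant came from crude K562 extract at 1 mg/mL protein treated with 10 μM compound for 30 min, heated for 3 min across 48°C-58°C, pooled and brought to 0.5% NP-40 at 4°C.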

Sequences of proteins named here, by UniProt entry; tags and fusion partners are left off. A change or cut given only in a name is not applied to a line headed by its entry.
UniProt Q16816: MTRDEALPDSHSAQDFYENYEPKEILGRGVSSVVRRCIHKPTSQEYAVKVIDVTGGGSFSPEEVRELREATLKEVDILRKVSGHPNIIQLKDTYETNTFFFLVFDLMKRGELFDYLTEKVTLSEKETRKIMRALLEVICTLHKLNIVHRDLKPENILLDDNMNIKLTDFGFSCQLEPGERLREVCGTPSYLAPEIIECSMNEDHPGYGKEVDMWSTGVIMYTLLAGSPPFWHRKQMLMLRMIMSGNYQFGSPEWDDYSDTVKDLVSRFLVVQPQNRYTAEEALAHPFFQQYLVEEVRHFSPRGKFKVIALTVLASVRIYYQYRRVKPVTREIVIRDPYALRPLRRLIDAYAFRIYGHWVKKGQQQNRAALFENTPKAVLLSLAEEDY
UniProt O75925, whole entry, looked up: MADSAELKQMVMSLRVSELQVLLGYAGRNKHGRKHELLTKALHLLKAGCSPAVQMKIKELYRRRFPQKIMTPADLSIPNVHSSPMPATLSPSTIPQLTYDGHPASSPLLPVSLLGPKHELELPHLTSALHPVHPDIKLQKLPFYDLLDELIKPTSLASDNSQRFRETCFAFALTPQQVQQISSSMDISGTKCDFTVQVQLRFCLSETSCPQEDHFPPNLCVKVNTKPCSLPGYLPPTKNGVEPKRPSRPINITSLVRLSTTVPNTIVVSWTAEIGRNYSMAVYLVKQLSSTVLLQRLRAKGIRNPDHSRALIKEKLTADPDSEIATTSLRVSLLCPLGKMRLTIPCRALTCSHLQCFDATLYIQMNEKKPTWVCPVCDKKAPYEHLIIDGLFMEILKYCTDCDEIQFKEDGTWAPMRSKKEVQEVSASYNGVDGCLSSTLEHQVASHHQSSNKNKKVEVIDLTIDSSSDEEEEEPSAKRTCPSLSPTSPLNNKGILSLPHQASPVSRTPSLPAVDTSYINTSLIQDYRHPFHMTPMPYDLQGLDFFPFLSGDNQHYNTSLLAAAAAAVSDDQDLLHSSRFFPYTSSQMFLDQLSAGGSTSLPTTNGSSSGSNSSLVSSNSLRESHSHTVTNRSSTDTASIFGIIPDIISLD
UniProt Q53GA4: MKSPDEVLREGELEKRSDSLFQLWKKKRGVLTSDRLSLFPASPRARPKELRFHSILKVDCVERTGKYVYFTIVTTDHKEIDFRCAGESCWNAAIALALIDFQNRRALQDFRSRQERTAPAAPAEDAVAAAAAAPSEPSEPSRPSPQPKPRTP
UniProt Q9BSJ6: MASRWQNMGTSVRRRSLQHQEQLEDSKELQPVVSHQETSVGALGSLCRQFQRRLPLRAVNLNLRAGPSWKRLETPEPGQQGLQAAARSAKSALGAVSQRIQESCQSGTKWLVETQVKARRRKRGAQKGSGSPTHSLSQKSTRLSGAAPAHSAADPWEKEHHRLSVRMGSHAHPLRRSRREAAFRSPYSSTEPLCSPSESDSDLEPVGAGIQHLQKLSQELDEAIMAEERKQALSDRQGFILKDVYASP
UniProt Q99569: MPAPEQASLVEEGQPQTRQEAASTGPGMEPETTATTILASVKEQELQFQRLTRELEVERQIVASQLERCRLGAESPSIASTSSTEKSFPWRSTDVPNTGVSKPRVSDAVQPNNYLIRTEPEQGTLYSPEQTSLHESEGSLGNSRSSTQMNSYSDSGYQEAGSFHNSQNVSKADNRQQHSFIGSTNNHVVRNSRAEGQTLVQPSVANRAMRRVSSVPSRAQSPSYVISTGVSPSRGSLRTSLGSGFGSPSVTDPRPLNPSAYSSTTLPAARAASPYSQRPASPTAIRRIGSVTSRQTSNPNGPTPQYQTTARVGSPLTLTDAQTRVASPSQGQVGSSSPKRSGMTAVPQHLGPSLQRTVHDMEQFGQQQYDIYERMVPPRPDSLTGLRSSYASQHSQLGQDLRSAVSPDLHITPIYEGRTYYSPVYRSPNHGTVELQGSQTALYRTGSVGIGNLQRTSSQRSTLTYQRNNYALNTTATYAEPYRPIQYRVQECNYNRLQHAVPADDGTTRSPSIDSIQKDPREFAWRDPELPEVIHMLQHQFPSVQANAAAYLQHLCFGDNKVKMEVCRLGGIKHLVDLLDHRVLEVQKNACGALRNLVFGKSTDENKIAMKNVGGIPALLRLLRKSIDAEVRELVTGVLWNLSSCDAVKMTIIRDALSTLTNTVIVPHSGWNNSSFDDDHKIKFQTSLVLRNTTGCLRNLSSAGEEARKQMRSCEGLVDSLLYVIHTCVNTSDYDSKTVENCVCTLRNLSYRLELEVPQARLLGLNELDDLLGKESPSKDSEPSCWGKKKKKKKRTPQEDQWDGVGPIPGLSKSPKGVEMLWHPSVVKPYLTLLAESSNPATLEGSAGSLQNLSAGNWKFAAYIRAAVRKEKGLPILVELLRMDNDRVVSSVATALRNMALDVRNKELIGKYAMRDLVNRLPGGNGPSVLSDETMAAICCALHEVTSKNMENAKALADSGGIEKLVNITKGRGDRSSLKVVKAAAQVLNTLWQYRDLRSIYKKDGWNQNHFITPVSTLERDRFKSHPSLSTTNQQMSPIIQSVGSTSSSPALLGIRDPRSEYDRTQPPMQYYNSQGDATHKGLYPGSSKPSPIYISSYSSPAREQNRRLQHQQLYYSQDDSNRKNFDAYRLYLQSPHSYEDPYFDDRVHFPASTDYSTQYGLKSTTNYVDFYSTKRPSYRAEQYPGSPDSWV
UniProt Q8N2W9: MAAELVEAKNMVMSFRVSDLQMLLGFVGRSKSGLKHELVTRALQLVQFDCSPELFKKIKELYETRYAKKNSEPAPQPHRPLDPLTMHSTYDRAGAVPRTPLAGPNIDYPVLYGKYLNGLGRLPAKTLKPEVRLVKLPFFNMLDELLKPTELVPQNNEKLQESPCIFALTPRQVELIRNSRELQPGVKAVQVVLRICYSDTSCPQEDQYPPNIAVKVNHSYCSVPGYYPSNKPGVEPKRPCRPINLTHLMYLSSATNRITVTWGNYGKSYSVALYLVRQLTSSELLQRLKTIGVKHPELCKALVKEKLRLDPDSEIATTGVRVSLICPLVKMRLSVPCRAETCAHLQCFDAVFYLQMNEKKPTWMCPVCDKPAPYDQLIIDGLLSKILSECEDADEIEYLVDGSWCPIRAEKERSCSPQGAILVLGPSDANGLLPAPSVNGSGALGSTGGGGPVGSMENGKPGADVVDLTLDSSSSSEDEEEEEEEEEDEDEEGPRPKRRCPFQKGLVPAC
UniProt Q8IXK0: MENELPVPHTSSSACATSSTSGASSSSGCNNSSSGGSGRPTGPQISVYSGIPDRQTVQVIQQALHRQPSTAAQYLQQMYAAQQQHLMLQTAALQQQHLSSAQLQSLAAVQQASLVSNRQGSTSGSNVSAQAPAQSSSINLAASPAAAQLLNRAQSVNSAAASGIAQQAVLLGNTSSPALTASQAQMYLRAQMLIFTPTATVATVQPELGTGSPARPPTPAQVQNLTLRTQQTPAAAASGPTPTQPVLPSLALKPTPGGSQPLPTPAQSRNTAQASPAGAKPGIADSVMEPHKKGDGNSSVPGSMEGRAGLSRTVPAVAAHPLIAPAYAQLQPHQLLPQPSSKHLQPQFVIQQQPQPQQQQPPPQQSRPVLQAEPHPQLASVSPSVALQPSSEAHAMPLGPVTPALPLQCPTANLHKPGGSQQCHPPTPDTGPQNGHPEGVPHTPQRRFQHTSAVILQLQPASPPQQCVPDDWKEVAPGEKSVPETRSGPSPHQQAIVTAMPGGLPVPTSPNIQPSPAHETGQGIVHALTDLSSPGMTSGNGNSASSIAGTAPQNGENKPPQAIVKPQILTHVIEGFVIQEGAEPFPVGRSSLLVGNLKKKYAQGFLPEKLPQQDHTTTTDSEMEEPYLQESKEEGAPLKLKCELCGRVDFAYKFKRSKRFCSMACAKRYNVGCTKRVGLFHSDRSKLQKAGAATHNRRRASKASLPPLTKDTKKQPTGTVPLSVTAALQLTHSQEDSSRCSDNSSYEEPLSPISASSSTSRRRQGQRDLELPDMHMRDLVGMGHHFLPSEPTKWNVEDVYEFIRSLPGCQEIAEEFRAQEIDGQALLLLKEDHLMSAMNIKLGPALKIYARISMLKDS
UniProt O95427: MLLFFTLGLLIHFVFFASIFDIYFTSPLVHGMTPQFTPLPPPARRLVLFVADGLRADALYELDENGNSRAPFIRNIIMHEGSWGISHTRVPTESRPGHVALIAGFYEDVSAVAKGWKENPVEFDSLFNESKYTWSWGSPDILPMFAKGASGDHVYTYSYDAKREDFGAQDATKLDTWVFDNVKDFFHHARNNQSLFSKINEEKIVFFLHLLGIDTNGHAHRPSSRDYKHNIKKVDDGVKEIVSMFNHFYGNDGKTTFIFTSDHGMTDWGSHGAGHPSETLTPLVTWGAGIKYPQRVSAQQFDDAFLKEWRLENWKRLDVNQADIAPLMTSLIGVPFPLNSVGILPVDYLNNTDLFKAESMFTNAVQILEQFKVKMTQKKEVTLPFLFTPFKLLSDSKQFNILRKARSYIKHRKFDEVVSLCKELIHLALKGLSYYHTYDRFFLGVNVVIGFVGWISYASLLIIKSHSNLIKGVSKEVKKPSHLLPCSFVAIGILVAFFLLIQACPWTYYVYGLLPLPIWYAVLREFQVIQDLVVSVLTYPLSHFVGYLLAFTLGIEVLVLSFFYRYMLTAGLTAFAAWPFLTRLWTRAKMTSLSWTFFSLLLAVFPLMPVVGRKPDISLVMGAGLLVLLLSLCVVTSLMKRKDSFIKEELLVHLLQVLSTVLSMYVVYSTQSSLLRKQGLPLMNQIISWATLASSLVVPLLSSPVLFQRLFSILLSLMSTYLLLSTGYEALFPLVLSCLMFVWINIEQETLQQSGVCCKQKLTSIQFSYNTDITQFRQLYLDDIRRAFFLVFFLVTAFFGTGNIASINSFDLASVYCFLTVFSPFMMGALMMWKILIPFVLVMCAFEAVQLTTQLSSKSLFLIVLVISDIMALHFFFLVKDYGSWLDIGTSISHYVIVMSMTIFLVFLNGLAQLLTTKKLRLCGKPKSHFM
UniProt Q99755: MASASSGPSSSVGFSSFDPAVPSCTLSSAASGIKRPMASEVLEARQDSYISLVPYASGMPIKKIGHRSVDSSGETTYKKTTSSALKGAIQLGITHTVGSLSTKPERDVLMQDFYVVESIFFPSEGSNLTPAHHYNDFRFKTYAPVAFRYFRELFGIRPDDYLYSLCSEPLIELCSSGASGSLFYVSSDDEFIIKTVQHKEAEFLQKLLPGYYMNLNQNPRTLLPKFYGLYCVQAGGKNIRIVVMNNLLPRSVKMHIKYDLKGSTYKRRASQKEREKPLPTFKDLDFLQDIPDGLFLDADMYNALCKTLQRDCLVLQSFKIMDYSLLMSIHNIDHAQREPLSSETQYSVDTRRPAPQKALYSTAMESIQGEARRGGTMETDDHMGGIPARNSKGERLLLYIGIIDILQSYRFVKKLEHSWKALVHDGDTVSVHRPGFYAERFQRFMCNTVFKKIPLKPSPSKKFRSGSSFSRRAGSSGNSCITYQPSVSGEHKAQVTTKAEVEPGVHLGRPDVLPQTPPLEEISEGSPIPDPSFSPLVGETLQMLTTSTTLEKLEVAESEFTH
UniProt Q9C010: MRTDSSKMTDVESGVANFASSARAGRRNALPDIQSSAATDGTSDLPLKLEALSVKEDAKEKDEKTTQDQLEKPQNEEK
UniProt Q9HB19: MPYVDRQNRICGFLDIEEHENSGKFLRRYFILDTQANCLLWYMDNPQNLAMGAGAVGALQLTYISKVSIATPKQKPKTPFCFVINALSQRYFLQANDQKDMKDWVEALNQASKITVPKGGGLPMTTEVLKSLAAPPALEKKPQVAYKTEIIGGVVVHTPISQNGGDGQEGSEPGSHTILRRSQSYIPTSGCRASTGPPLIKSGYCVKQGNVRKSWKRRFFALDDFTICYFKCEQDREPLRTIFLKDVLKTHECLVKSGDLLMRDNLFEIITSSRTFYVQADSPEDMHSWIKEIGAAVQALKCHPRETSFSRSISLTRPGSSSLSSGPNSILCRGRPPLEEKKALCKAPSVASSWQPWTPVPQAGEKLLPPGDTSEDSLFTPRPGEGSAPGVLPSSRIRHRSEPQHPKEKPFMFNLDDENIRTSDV
UniProt Q8TBF5: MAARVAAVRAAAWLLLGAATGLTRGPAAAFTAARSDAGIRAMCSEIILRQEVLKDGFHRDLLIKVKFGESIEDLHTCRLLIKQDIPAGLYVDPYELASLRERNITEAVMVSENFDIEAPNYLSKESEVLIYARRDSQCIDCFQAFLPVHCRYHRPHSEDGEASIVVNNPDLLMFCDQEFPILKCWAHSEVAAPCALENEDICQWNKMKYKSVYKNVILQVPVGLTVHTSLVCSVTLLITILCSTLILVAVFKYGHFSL

Compound in test [2]: Cc1sc2c(c1C)C(c1ccc(Cl)cc1)=N[C@@H](CC(=O)OC(C)(C)C)c1nnc(C)n1-2
In outline:
as §1

Compound in test [3]: c1ccc([C@@H]2C[C@H]2NC2CCNCC2)cc1
The gist of the method: as §1

Compound in test [4]: C1=CC=C(C=C1)[C@H](COC2=CC3=C(C=C2)NC(=O)N3)NC(=O)C4=CC=CN(C4=O)CC5=CC(=C(C=C5)F)F
The gist of the method:
as §1

Compound in test [5]: CC1=C(SC2=C1C(=N[C@H](C3=NN=C(N32)C)CC(=O)N)C4=CC=C(C=C4)Cl)C
The gist of the method:
as §1

The list shows a part of the results.

With PHKG1 isoform 2 (UniProt Q16816), the log2 fold change is inactive: -0.375 in test [1], inactive: -0.054 in test [2] and inactive: -0.493 in test [3].
In the case of PIAS1 isoform 2 (UniProt O75925), the log2 fold change in test [2] is inactive: -0.056; in test [3], inactive: 0.047.
In the case of PHLDA2 (UniProt Q53GA4), the figures for the log2 fold change in test [1] and in test [2] were inactive: 0.333 and inactive: 0.013, respectively.
With PKLR (UniProt F8W6W2), the log2 fold change in test [1] was inactive: -0.08.
For PIMREG (UniProt Q9BSJ6), the log2 fold change in test [4] was inactive: 0.204; in test [5] it was inactive: -0.145; in test [3], inactive: -0.112.
Consider PKP4 (UniProt Q99569), for which the results for the log2 fold change in test [2] and in test [3] were inactive: 0.075 and inactive: -0.01, respectively.
Take PIAS4 (UniProt Q8N2W9): the log2 fold change was inactive: 0.058 in test [1], inactive: -0.025 in test [2] and inactive: -0.103 in test [3].
Consider PHC2 isoform 5 (UniProt Q8IXK0), for which the log2 fold change was inactive: 0.185 in test [1] and inactive: 0.012 in test [3].
For the target PIGN (UniProt O95427), the log2 fold change was inactive: 0.057 in test [1] and inactive: 0.046 in test [2].
In the case of PIP5K1A (UniProt Q99755), the log2 fold change in test [4] was inactive: -0.058; in test [5] it was inactive: 0.067; in test [2], inactive: 0.059; in test [3], inactive: -0.096.
For the target PHC3 isoform 7 (UniProt Q8NDX5), the log2 fold change in test [1] was inactive: -0.071; in test [2], inactive: 0.039; in test [3] it was inactive: -0.021.
Turning to PKIB isoform 2 (UniProt Q9C010), in test [3], the log2 fold change is inactive: -0.072.
For PLEKHA2 (UniProt Q9HB19), the log2 fold change was inactive: -0.036 in test [4], inactive: 0.109 in test [5], inactive: 0.178 in test [2] and inactive: -0.035 in test [3].
The corresponding values for PIGX isoform 2 (UniProt Q8TBF5) are inactive: 0.011, inactive: 0.022, inactive: -0.123 and inactive: 0.011.

For the origin of these results see the supplement of paper PMC10849652.
